# Assay results published in patent US20180207138A1, “METHODS FOR THE TREATMENT OF TREMORS BY POSITIVE MODULATION OF SK CHANNELS” (Cadent Therapeutics, Inc., priority 2017, published 2018).
# Assay: Brain concentration by mass spectrometry from brains harvested after tremor recording
# Conditions: CFB/SK2 SC100×100, at minimally efficacious dose
row,SMILES,Calculated % SK2 SC100 [%]
1,Cc1ccn(-c2nc(NC3CCC(F)(F)CC3)cc(N3CCOCC3)n2)n1 [Compound 2],16
2,Cc1cc(C)n(-c2nc(NC3CCC(F)(F)CC3)cc(N3CCOCC3)n2)n1 [Compound 1],24
